This is an account of results in PMC11251039, “Harnessing cholesterol uptake of malaria parasites for therapeutic applications” (EMBO Molecular Medicine, 2024).

Molecules are shown by their SMILES. Several values for one entry are separate records, joined by “and”; a condition that tells them apart may be missing. Equal entries are not always repeated.

Data set [1] has as its system infected red blood cells (iRBCs). The data set can be described thus: Uptake of fluorescent cholesterol analogues (deconvolution fluorescence microscopy, flow cytometry). It counts as cell-based, P. falciparum. To be noted: for Subcellular fluorescence localisation: 24 h incubation from ring stage, deconvolution fluorescence microscopy; for Uptake in iRBCs compared to uRBCs (NBD fluorescence, flow cytometry) / NBD mean fluorescence intensity (foldchange, normalised), Infected: 2 µM, 24 h; for NBD mean fluorescence intensity (foldchange, normalised), Infected: flow cytometry, replicate values, source data Fig. 1H.

Data set [2] relates to uninfected red blood cells (uRBCs). The data set can be described thus: Uptake of fluorescent cholesterol analogues (flow cytometry), uninfected cells. It counts as cell-based, human. The following applies: 2 µM, 24 h, replicate values, source data Fig. 1H.

Regarding `CC1=CC(C)=[N+]2C1=C(CCCCCCCCCCC(=O)O[C@H]1CC[C@@]3(C)C(=CC[C@H]4[C@@H]5CC[C@H]([C@H](C)CCCC(C)C)[C@@]5(C)CC[C@@H]43)C1)c1c(C)cc(C)n1[B-]2(F)F` [3-undecanoate-BODIPY-cholesterol], the Subcellular fluorescence localisation entry in data set [1] is “faint and only visible in the parasite”.
Consider `C[C@H](CN(C)c1ccc([N+](=O)[O-])c2nonc12)[C@H]1CC[C@H]2[C@@H]3CC=C4C[C@@H](O)CC[C@]4(C)[C@H]3CC[C@]12C` [22-NBD-cholesterol], for which the “NBD mean fluorescence intensity (foldchange, normalised), Uninfected” value in data set [2] is 1.118 and 1.012 and 1.021 and 0.967 and 1.053 and 0.8292 and 1.027 and 0.983 and 0.9903 and 0.9497 and 1.016 and 1.035. Further, in data set [1], the “Uptake in iRBCs compared to uRBCs (NBD fluorescence, flow cytometry)” value is reported as “approximately 8 fold”; the “NBD mean fluorescence intensity (foldchange, normalised), Infected” value was 6.176 and 5.65 and 4.181 and 8.962 and 8.373 and 8.463 and 7.217 and 8.143 and 8.359 and 8.349 and 8.174 and 7.939; the Subcellular fluorescence localisation entry is “bright around the area of the parasite in iRBCs and faintly visible in the RBC membrane of both uRBCs and iRBCs”.
On to `COc1ccc(CNc2ccc([N+](=O)[O-])c3nonc23)cc1` [p-methoxybenzylamine-NBD], for which, in data set [1], the Subcellular fluorescence localisation entry was “only faint fluorescence in uRBCs and iRBCs”.
Still for that read-out and setting: in the case of `CC(C)[C@@H](C)/C=C/[C@@H](C)[C@H]1CC[C@H]2C3=CC=C4C[C@@H](O)CC[C@]4(C)C3=CC[C@]12C` [dehydroergosterol] it was “fluorescence concentrated within the parasite”; in that of `CC1=CC(C)=[N+]2C1=C(CC[C@@H](C)[C@H]1CC[C@H]3[C@@H]4CC=C5C[C@@H](O)CC[C@]5(C)[C@H]4CC[C@]13C)c1c(C)cc(C)n1[B-]2(F)F` [24-BODIPY-cholesterol], “visible in the RBC membrane of both uninfected RBCs (uRBCs) and iRBCs, and in the intracellular parasites inside erythrocytes”.
For the compound `CC(C)CCC[C@@H](C)[C@H]1CC[C@H]2[C@@H]3CC=C4C[C@@H](OC(=O)CCCCCN(C)c5ccc([N+](=O)[O-])c6nonc56)CC[C@]4(C)[C@H]3CC[C@]12C` [3-Hexanoyl-NBD-cholesterol], in data set [2], the “NBD mean fluorescence intensity (foldchange, normalised), Uninfected” value was 0.06749 and 0.1421 and 0.1333 and 0.1319 and 0.3093 and 0.06015 and 0.2316 and 0.2295 and 0.2415 and 0.0755 and 0.09012 and 0.093. In data set [1], the “Uptake in iRBCs compared to uRBCs (NBD fluorescence, flow cytometry)” value was “not significantly different”; the “NBD mean fluorescence intensity (foldchange, normalised), Infected” value is 0.0904 and 0.434 and 0.1229 and 0.3079 and 0.297 and 0.3178 and 0.1407 and 0.156 and 0.1654 and 0.213 and 0.2006 and 0.2018; the Subcellular fluorescence localisation entry is “faintly visible in the RBC membrane and in the parasite”.
